Laboratory results taken from patent US10101319B2, “Methods of detecting plasmodium infection” (Commonwealth Scientific and Industrial Research Organisation, priority 2013, dated 2018).
Some compounds share one wording; it may come from a single statement.

Assay: Breath chromatograms of patients with bacterially-induced fevers
Assay type: in vivo, human
Settings: bacterially-induced fevers vs control group, 0.5 L breath
With C/C=C\SC [ZMP, (Z)-1-Methylthio-1-propene] the “Levels in breath of febrile non-malarial patients” value was “very low and the same in fever and control groups”. With CCCSC [MP, 1-Methylthio propane] the “Levels in breath of febrile non-malarial patients” value was “very low and the same in fever and control groups”. In the case of C=CCSC [AMS, Allyl methyl sulphide], the “Levels in breath of febrile non-malarial patients” value is reported as “very low and the same in fever and control groups”. With C/C=C/SC [EMP, (E)-1-Methylthio-1-propene] the “Levels in breath of febrile non-malarial patients” value was “very low and the same in fever and control groups”.
